PubChem BioAssay AID686938 | Drosophila RNAi Screening Center, 2013
The deposit covers about 23,000 reagents; below is an unselected part of those that have a named target and a result. Of all reagents, 75 (0.33%) got an active call. 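Raw plate signals without normalisation; calls rest on plate z-scores that were not deposited; ratio present for only 364 wells.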 Entries without a mark were called inactive. The numbers tell different reagents against one gene apart. No sequences are given here. Not given: the dose of the treatment.

- Test: 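Looking for CRAC channel components and the factors controlling them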 (primary screen)
- Cell system: Drosophila S2R+ cells
- Knock-down reagent: long dsRNA against Drosophila genes, about 0.25 µg dsRNA per well, roughly 10,000 cells
- Time to read-out: 5 days of knock-down before the calcium assay
- Treatment: thapsigargin (SERCA pump blocker) to empty calcium stores; entry signal taken 4 min after adding it
- Read-out: 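Per-well fluo-4 fluorescence in two replicates, unnormalised, measured in resting cells and 4 min after store depletion by the SERCA blocker thapsigargin; ratio of the two present in few wells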
- Direction: calcium entry signal: higher = stronger calcium signal after store depletion; resting calcium signal: higher = higher resting calcium signal
- Call rule: 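Called when the plate z-score of the entry-to-rest ratio, mean of duplicates, falls below −3; wells with low overall dye signal (Fmax z below −2) or more than five off-targets excluded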
- Calls: active = strongly reduced calcium entry; inactive = no strong reduction

gene,reagent no.,"calcium entry signal, replicate 1 (fluorescence units)","calcium entry signal, replicate 2 (fluorescence units)","resting calcium signal, replicate 1 (fluorescence units)","resting calcium signal, replicate 2 (fluorescence units)"
CG3301 (GeneID 42528),1,4.96e7,4.05e7,2.08e7,1.75e7
lectin-30A (GeneID 53541),1,2.99e7,4.67e7,1.41e7,2.05e7
Ipo9 (GeneID 41367),1,2.93e7,3.17e7,1.50e7,1.60e7
Spn28Dc (GeneID 34091),1,2.35e7,2.94e7,1.18e7,1.40e7
Vm26Ab (GeneID 33827),1,3.79e7,3.10e7,1.80e7,1.68e7
CG17855 (GeneID 34269),1,2.41e7,3.65e7,1.12e7,1.53e7
SelG (GeneID 32149),1,2.41e7,2.82e7,1.29e7,1.48e7
CG43335 (GeneID 12798413),1,2.39e7,4.95e7,1.23e7,5.81e7
CG43335 (GeneID 12798413),2,3.39e7,2.94e7,1.64e7,1.22e7
CG13850 (GeneID 42630),1,3.36e7,3.11e7,1.64e7,1.53e7
CG6325 (GeneID 41268),1,3.46e7,5.00e7,1.57e7,2.01e7
CG15890 (GeneID 32401),1,3.20e7,3.45e7,1.64e7,1.74e7
CG2811 (GeneID 37988),1,2.59e7,4.22e7,1.51e7,1.68e7
CG10011 (GeneID 43387),1,4.84e7,4.59e7,2.24e7,2.20e7
NELF-B (GeneID 31681),1,4.09e7,4.41e7,2.03e7,2.05e7
CG7627 (GeneID 34148),1,7.32e7,,2.51e7,
CrebA (GeneID 39682),1,3.78e7,4.32e7,1.75e7,3.04e7
CG13083 (GeneID 35230),1,5.19e7,5.25e7,2.64e7,2.15e7
CG31809 (GeneID 318954),1,2.33e7,4.11e7,1.51e7,1.78e7
mle (GeneID 35523),1,3.65e7,3.56e7,2.09e7,1.88e7
sand (GeneID 35777),1,3.05e7,4.01e7,1.53e7,1.97e7
CG5906 (GeneID 39343),1,2.77e7,3.69e7,1.53e7,1.61e7
Srp19 (GeneID 38815),1,2.01e7,3.18e7,1.14e7,1.57e7
lncRNA:Hsromega (GeneID 3772547),1,5.13e7,3.37e7,2.32e7,1.50e7
Dref (GeneID 34328),1,3.28e7,,1.94e7,
CG34278 (GeneID 5740656),1,3.89e7,4.26e7,2.03e7,2.11e7
CG13693 (GeneID 33187),1,3.94e7,4.12e7,1.67e7,1.63e7
Tengl4 (GeneID 41321),1,4.34e7,3.68e7,2.08e7,1.93e7
CG3610 (GeneID 41795),1,3.40e7,4.68e7,1.72e7,7.23e7
PGRP-SC1a (GeneID 35859),1,3.93e7,5.09e7,1.87e7,2.14e7
CG7148 (GeneID 40432),1,2.61e7,3.37e7,1.26e7,2.37e7
CG6686 (GeneID 34608),1,2.13e7,,1.40e7,
Gr22f (GeneID 117349),1,4.18e7,4.07e7,2.27e7,1.76e7
RPA1 (GeneID 40972),1,1.86e7,2.03e7,1.21e7,1.16e7
CG32713 (GeneID 318166),1,3.63e7,3.92e7,2.05e7,1.77e7
lncRNA:CR43421 (GeneID 12798123),1,2.65e7,6.33e7,1.25e7,3.03e7
Alg1 (GeneID 42146),1,3.91e7,3.42e7,1.91e7,1.53e7
Hip14 (GeneID 39747),1,2.85e7,3.91e7,1.45e7,2.82e7
Wsck (GeneID 318600),1,4.48e7,3.62e7,2.12e7,2.01e7
Ran-like (GeneID 39666),1,3.78e7,5.08e7,1.86e7,3.29e7
cact (GeneID 34969),1,3.32e7,,1.90e7,
CG4297 (GeneID 33222),1,2.42e7,2.60e7,1.18e7,1.17e7
Tl (GeneID 43222),1,4.10e7,4.94e7,1.78e7,2.13e7
CG4281 (GeneID 31171),1,3.26e7,3.30e7,1.48e7,1.52e7
CG9121 (GeneID 33732),1,4.15e7,4.12e7,2.03e7,1.83e7
Ir60d (GeneID 7354402),1,4.26e7,4.65e7,2.08e7,2.06e7
CG30392 (GeneID 246587),1,3.64e7,5.01e7,1.70e7,2.62e7
Smr (GeneID 32225),1,1.86e7,2.11e7,1.19e7,1.26e7
Smr (GeneID 32225),2,2.14e7,2.91e7,1.43e7,1.83e7
Smr (GeneID 32225),3,5.09e7,3.17e7,2.86e7,1.54e7
CG17328 (GeneID 34962),1,5.09e7,3.70e7,2.19e7,1.78e7
CG17328 (GeneID 34962),2,3.60e7,2.87e7,1.55e7,1.10e7
CR42745 (retired record) (GeneID 10178802),1,4.57e7,4.35e7,2.04e7,1.93e7
Tsp42Ec (GeneID 35612),1,3.13e7,2.82e7,1.40e7,1.28e7
CG5800 (GeneID 32742),1,1.68e7,1.79e7,1.02e7,1.02e7
CG32333 (GeneID 38142),1,2.84e7,2.97e7,1.35e7,1.43e7
CG32333 (GeneID 38142),2,3.24e7,3.96e7,1.64e7,1.71e7
M1BP (GeneID 41042),1,2.98e7,2.73e7,2.10e7,1.53e7
